The values below come from PMC6770469 (International Journal of Molecular Sciences, 2019).

HELM strings list residues between dots; [ac] is acetyl, [am] amide, other brackets name non-standard units.

The data set in a line: general procedure: Fmoc solid-phase peptide synthesis. Particulars: whole synthesis, electrospray mass spectrometry.

Turning to “PEPTIDE1{F.G.G.F.T.G.A.R.K.S.A.R.K.L.A.N}$$$$V2.0”, the final ms purity result is recorded as “over 98% purity”.
